Here are results for 2 substances from publication PMC12843386, “Ly6/uPAR Protein from Asterias rubens Starfish Stimulates Migration and Invasion of Human Epithelial and Immune Cells” (Marine Drugs, 2025).

Assay [1] has as its target T1, peptide mimicking loop II of Lystar5 (Asterias rubens).
T1 sequence (peptide, C-terminal amide): GCQVIYSTERGKLRIDCG
Kind of assay: pull-down; affinity extraction: Lystar5 or loop I or II (1 mg/mL) coupled to NHS Flexibind magnetic beads, incubated 1 h in TBS with the pre-cleared membrane fraction of PBMCs; washes with TBS, TBS + 1 M NaCl + 0.5% Triton X-100, TBS + 0.5% Triton X-100; Western blotting; only the target purified. On the technique in general: Immunoblotting shows a protein as a band on a membrane.

The target is the same in assay [2]. Kind of assay: pull-down; affinity extraction: Lystar5 or loop I or II (1 mg/mL) coupled to NHS Flexibind magnetic beads, incubated 1 h in TBS with the pre-cleared membrane fraction of HaCaT keratinocytes; washes with TBS, TBS + 1 M NaCl + 0.5% Triton X-100, TBS + 0.5% Triton X-100; Western blotting; only the target ….
Assay [3] addresses T2, peptide mimicking loop I of Lystar5 (Asterias rubens).
T2 sequence (peptide, C-terminal amide): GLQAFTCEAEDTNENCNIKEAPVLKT
The description is as above.

No constants are given. Whether binding was seen depends on the method and setting. Binding seen in cells or lysates may run through a third protein. A result given as binding can be weak or reduced; the word gives no strength.

For the substance αV integrin subunit (receptor), the binding result in assay [1], in assay [2] and in assay [3] was “binds” throughout.
In the case of α5 integrin subunit (receptor), the binding result in assay [3] was “binds”.
